# Publication PMC7226152
# Chains of the proteins cited; added tags and fusions are not shown.
# UniProt P19338: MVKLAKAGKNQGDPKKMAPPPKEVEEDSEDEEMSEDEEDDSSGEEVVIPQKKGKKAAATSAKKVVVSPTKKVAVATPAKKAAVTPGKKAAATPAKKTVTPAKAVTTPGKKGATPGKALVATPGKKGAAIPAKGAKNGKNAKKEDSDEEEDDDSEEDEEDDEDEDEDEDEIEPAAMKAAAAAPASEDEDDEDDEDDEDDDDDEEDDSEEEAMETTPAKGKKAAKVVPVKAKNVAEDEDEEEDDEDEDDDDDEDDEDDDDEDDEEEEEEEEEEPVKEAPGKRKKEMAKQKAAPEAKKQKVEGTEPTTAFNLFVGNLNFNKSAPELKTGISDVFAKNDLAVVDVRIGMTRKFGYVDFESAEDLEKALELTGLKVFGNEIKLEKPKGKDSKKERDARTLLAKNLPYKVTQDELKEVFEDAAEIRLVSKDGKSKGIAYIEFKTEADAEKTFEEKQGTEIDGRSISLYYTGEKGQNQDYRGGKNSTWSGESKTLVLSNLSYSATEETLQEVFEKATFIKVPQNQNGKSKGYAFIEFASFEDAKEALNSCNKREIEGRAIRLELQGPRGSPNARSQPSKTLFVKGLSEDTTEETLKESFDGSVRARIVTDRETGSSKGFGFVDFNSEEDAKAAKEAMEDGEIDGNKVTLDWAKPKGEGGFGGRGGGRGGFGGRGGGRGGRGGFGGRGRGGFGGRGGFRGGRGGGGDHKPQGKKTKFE
# These are yes or no findings as the source states them, for the method shown. Some results given as binding are weak or reduced against the parent protein; the word gives no strength.
# B1: Recombinant Mouse E-Selectin Ig Chimera Protein (Fc fusion, UniProt Q00690 22-557)
# chain: WYYNASSELMTYDEASAYCQRDYTHLVAIQNKEEINYLNSNLKHSPSYYWIGIRKVNNVWIWVGTGKPLTEEAQNWAPGEPNNKQRNEDCVEIYIQRTKDSGMWNDERCNKKKLALCYTASCTNASCSGHGECIETINSYTCKCHPGFLGPNCEQAVTCKPQEHPDYGSLNCSHPFGPFSYNSSCSFGCKRGYLPSSMETTVRCTSSGEWSAPAPACHVVECEALTHPAHGIRKCSSNPGSYPWNTTCTFDCVEGYRRVGAQNLQCTSSGIWDNETPSCKAVTCDAIPQPQNGFVSCSHSTAGELAFKSSCNFTCEQSFTLQGPAQVECSAQGQWTPQIPVCKAVQCEALSAPQQGNMKCLPSASGPFQNGSSCEFSCEEGFELKGSRRLQCGPRGEWDSKKPTCSAVKCDDVPRPQNGVMECAHATTGEFTYKSSCAFQCNEGFSLHGSAQLECTSQGKWTQEVPSCQVVQCPSLDVPGKMNMSCSGTAVFGTVCEFTCPDDWTLNGSAVLTCGATGRWSGMPPTCEAPVSPTRP
# Target: nucleolin (human (endogenous in N87, OCUM-1, KATO-III)) (UniProt P19338)
# Assay: far-Western, overlay or dot blot; NCL immunoprecipitates blotted and screened for E-selectin affinity before and after neuraminidase digestion (negative control); Figure S4; method not described further; only the binder purified
binder,measurement,value
B1,binding,binds
